Measurements: the supplement of paper PMC4635364
Structures can show the parent of a compound that is named as a salt. The list shows a part of the results. This data set is noisy: repeats of one test often differ as much as different tests do.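 Human fetal ventral-midbrain neural progenitor line ReNCell VM, differentiated without mitogens. Images stained for doublecortin (early neurons) or tyrosine hydroxylase (dopaminergic neurons) were scored by blinded raters against untreated wells (0 = no change). Repeats and both raters were averaged, and compounds averaging 2 or higher were picked as hits for retesting.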

Tested on: ReNCell VM
Assay: neuronal differentiation score (DCX+ cell fraction vs untreated, manual image score) (score (-3 to 3)); higher = more neuronal differentiation
Conditions: library: LOPAC; 2 uM; 2 weeks

Neuronal differentiation score, inactive:
O=c1cc(N2CCOCC2)oc2c(-c3ccccc3)cccc12 [LY-294,002 hydrochloride] 0
CCC(NC(C)C)C(O)c1ccc(O)c(O)c1 (stereo unspecified) [Isotharine mesylate] 0
NC(=O)C1=CN(C2OC(COP(=O)(O)OP(=O)(O)OC[C@H]3O[C@@H](n4cnc5c(N)ncnc54)C(OP(=O)(O)O)[C@H]3O)C(O)C2O)C=CC1 (stereo partly specified) [NADPH tetrasodium] 0
O=c1[nH]c2cc(Cl)c(Cl)cc2[nH]c1=O [6,7-Dichloroquinoxaline-2,3-dione] 0
NCCCCN [Putrescine dihydrochloride] 0
COc1ccc2cc([C@H](C)C(=O)O)ccc2c1 [(-)-Naproxen sodium] 0
